Drawing on PubChem BioAssay AID248 (DTP/NCI, 2004), this text covers survivor count and T/C for 36 compounds.

The test system of this experiment is L1210 leukemia ip in BDF1 mice, survival T/C. Nature of the experiment: NCI In Vivo Anticancer Drug Screen. Data for tumor model L1210 Leukemia (intraperitoneal) in B6D2F1 (BDF1) mice. The settings on record: T/C endpoint: mean survival time, higher T/C = longer survival.
Setting [1] is: dose: 400.0 mg/kg/injection, schedule: Q04DX003 (ip), vehicle: Klucel (hydroxypropylcellulose) (HPC).
Setting [2] is: dose: 200.0 mg/kg/injection, schedule: Q01DX001 (ip), vehicle: saline.
The mark [3] stands for this setting: dose: 400.0 mg/kg/injection, schedule: Q01DX001 (ip), vehicle: saline.
Setting [4] is: dose: 400.0 mg/kg/injection, schedule: Q04DX003 (ip), vehicle: saline with Tween-80.
Setting [5] is: dose: 400.0 mg/kg/injection, schedule: Q01DX009 (ip), vehicle: Klucel (hydroxypropylcellulose) (HPC).
Setting [6] is: dose: 400.0 mg/kg/injection, schedule: Q04DX002 (ip), vehicle: saline.
[7] abbreviates: dose: 100.0 mg/kg/injection, schedule: Q01DX001 (ip), vehicle: saline.
Where [8] appears, read: dose: 200.0 mg/kg/injection, schedule: Q01DX009 (ip), vehicle: Klucel (hydroxypropylcellulose) (HPC).
[9] abbreviates: dose: 200.0 mg/kg/injection, schedule: Q01DX001 (ip), vehicle: other.
Where [10] appears, read: dose: 400.0 mg/kg/injection, schedule: Q01DX001 (ip), vehicle: other.

Structures are written as SMILES. The list does not hold the whole screen: it is rich in T/C values a quarter to a half above the control, in often repeated tests (any T/C) and in doses without a T/C. Other doses and runs of a compound stand elsewhere. T/C is the treated group as % of the vehicle group. Some entries give survivors of the animals treated and no T/C: the source files T/C as zero there, which appears to mark a toxic dose or a test without result, not a measured value. Some doses without a T/C left all or most animals alive at the check, yet need not have been tolerated: the source hardly ever lists a survival T/C far under the control, and the zero likely stands for such cases as well. Counts of survivors are from the toxicity check (mostly the fifth day) where no day follows; animals may have died later. Schedules are NCI's codes, taken here to give the interval after Q, in days (D) or hours (H), and the number of doses after X. Some schedules carry Z or #; the key to these is not given. Some doses were run more than once; the values are given in rising order. For survival time, this PubChem deposit counts one and a half times the control or more as active, and values a quarter to a half above the control carry no call in these data; other NCI protocols may use other cut-offs.

Take `c1ccc(N=Nc2ccc(NC3=NCCO3)cc2)cc1`: the survivor count under setting [1] is reported as 6 of 6.

Regarding `O=C(c1ccccc1)N(CCCl)C(=O)N(CCCl)C(=O)c1ccccc1`, for the setting “dose: 300.0 mg/kg/injection, schedule: Q01DX009 (ip), vehicle: saline with Tween-80”, the survivor count was 6 of 6.

In the case of `Cc1c(-[n+]2ccccc2)[nH]c2ccccc12`, the survivor count runs as follows: under setting [2], 0 of 4; under setting [3], 0 of 4. In the case of `N#Cc1c(F)c(F)c(Oc2c(F)c(F)c(F)c(Oc3c(F)c(F)c(C#N)c(F)c3F)c2F)c(F)c1F`, the survivor count (dose: 100.0 mg/kg/injection, schedule: Q04DX003 (ip), vehicle: other) is given as 6 of 6; the survivor count (dose: 400.0 mg/kg/injection, schedule: Q01DX009 (ip), vehicle: other) is 0 of 6; the survivor count (dose: 400.0 mg/kg/injection, schedule: Q04DX003 (ip), vehicle: other) is 5 of 6.

`CCCCN(CCCC)C(C)=O`: under setting [3], the survivor count was 0 of 4. Consider `C=CCN(CC=C)P(=O)(N(CC=C)CC=C)N1CC1`, for which the T/C by setting is: (dose: 20.0 mg/kg/injection, schedule: Q01DX001 (ip), vehicle: saline) 126 % of control; (dose: 40.0 mg/kg/injection, schedule: Q01DX001 (ip), vehicle: saline) 134 % of control; (dose: 80.0 mg/kg/injection, schedule: Q01DX001 (ip), vehicle: saline) 143 % of control. Also, the survivor count under setting [2] was 2 of 6 and the survivor count under setting [3] was 0 of 6. As to `CCc1cc(C)cc(OC(=O)Nc2ccccc2)c1`, under setting [4], the survivor count is 6 of 6. Turning to `C[N+]1(C)C2CCCCC1CC(=O)C2`, the survivor count (dose: 75.0 mg/kg/injection, schedule: Q01DX001 (ip), vehicle: saline) is given as 1 of 6; the survivor count (dose: 150.0 mg/kg/injection, schedule: Q01DX001 (ip), vehicle: saline) was 0 of 6; the survivor count (dose: 300.0 mg/kg/injection, schedule: Q01DX001 (ip), vehicle: saline) is given as 0 of 6. On to `O=C(NCCc1nc(C(=O)O)cs1)c1ccccc1`, for which the survivor count is given as 6 of 6 (dose: 200.0 mg/kg/injection, schedule: Q01DX009 (ip), vehicle: gum acacia) and 6 of 6 (dose: 400.0 mg/kg/injection, schedule: Q01DX009 (ip), vehicle: gum acacia).

`CCCCCCCCOc1nccc(N)n1`: the survivor count reads like this: (dose: 150.0 mg/kg/injection, schedule: Q01DX001 (ip), vehicle: saline with Tween-80) 1 of 6; (dose: 300.0 mg/kg/injection, schedule: Q01DX001 (ip), vehicle: saline with Tween-80) 0 of 6.

In the case of `C=CCc1cc(OC)c2c(c1OC)C(=O)c1cccc(OC)c1C2=O`, the survivor count under setting [4] is on record as 1 of 6.

For `CN(C)CCCN=Cc1cc([N+](=O)[O-])ccc1O.CN(C)CCCN=Cc1cc([N+](=O)[O-])ccc1O.[Ni+2]`, the survivor count by setting is: (dose: 200.0 mg/kg/injection, schedule: Q04DX003 (ip), vehicle: saline with Tween-80) 3 of 6; under setting [4], 0 of 6. As for `COc1cc2c(cc1OC)C(=O)Cc1ccc3c(c1CN(C)CC2)OCO3`, the survivor count under setting [5] is listed as 6 of 6. In the case of `CCOC(=O)COc1ccc(N=NN(C)c2ccccc2)cc1`, under “dose: 375.0 mg/kg/injection, schedule: Q01DX Z (ip), vehicle: carboxymethylcellulose (CMC)”, the survivor count is 1 of 6. Consider `CC(=O)NCc1cccc[n+]1[O-]`, for which the survivor count reads like this: (dose: 200.0 mg/kg/injection, schedule: Q04DX002 (ip), vehicle: saline) 1 of 3; under setting [6], 0 of 3. With `Cn1c(=O)n2n(c1=O)C1CCC2C2C=CC21` (stereo not given), the survivor count (dose: 25.0 mg/kg/injection, schedule: Q01DX001 (ip), vehicle: saline) is 0 of 6; the survivor count under setting [7] is recorded as 0 of 6; the survivor count under setting [2] is reported as 0 of 6; the survivor count under setting [3] is 0 of 6. For `O=C(O)COc1ccc(Cl)cc1CC(Cl)CCl` (stereo not given), the survivor count by setting is: under setting [8], 3 of 6; under setting [5], 0 of 6.

For the compound `N#CCC[P+](c1ccccc1)(c1ccccc1)c1ccccc1`, the survivor count under setting [3] was 1 of 6. Regarding `O=C(CCN1CC2CCC(CC2)C1)c1csc2ccccc12`, the T/C (dose: 200.0 mg/kg/injection, schedule: Q01DX001 (ip), vehicle: carboxymethylcellulose (CMC)) was 147 % of control. Take `CC(C)(Cc1ccccc1)C(C(=O)O)C(=O)O`: under “dose: 400.0 mg/kg/injection, schedule: Q01DX001 (ip), vehicle: gum acacia”, the survivor count was 2 of 6.

With `CCC1([N+](=O)[O-])COP(N)(=O)OC1` (stereo not given), the survivor count under setting [7] was 3 of 6, the survivor count under setting [2] was 3 of 6 and the survivor count under setting [3] was 1 of 6. As for `CSc1ccccc1C1CCCCCC1OS(C)(=O)=O` (stereo not given), the survivor count by setting is: (dose: 200.0 mg/kg/injection, schedule: Q01DX001 (ip), vehicle: Klucel (hydroxypropylcellulose) (HPC)) 2 of 6; (dose: 400.0 mg/kg/injection, schedule: Q01DX001 (ip), vehicle: Klucel (hydroxypropylcellulose) (HPC)) 0 of 6.

In the case of `CSc1ncnc2nncnc12`, the survivor count runs as follows: (dose: 80.0 mg/kg/injection, schedule: Q01DX001 (ip), vehicle: other) 0 of 4; (dose: 100.0 mg/kg/injection, schedule: Q01DX001 (ip), vehicle: other) 0 of 4; under setting [9], 0 of 4; under setting [10], 0 of 4. In the case of `CCCCNC(=O)C1C=C2c3cccc4[nH]cc(c34)CC2N(C)C1` (stereo not given), the survivor count reads like this: (dose: 100.0 mg/kg/injection, schedule: Q01DX009 (ip), vehicle: Klucel (hydroxypropylcellulose) (HPC)) 2 of 6; under setting [8], 0 of 6; under setting [1], 1 of 6. Take `C=CCc1ccc(OC(=O)NC(C)C)c(OC)c1`: under setting [5], the survivor count is listed as 3 of 3.

Regarding `C/C(=N/OC(=O)N(C)C)c1ccc(Cl)cc1Cl`, the survivor count was 1 of 4 under setting [9] and 0 of 4 under setting [10]. As for `Cc1cc(=O)[nH]c(C(F)(F)F)n1`, the survivor count is 6 of 6 (dose: 44.0 mg/kg/injection, schedule: Q01DX Z (ip), vehicle: methylcellulose (MC)); 6 of 6 (dose: 66.0 mg/kg/injection, schedule: Q01DX Z (ip), vehicle: methylcellulose (MC)); 6 of 6 (dose: 100.0 mg/kg/injection, schedule: Q01DX Z (ip), vehicle: methylcellulose (MC)). `CNC(=O)c1ccc(NC(=O)Nc2ccc(C3=NCCN3)cc2)cc1NC(=O)Nc1ccc(C2=NCCN2)cc1`: the T/C (dose: 8.0 mg/kg/injection, schedule: Q01DX Z (ip), vehicle: carboxymethylcellulose (CMC)) was 130 % of control; the T/C (dose: 13.0 mg/kg/injection, schedule: Q01DX Z (ip), vehicle: carboxymethylcellulose (CMC)) is 142 % of control; the T/C (dose: 136.0 mg/kg/injection, schedule: Q01DX Z (ip), vehicle: carboxymethylcellulose (CMC)) was 127 % of control. Regarding `BrC1(Br)C2CCCCC21` (stereo not given), the survivor count (dose: 100.0 mg/kg/injection, schedule: Q04DX003 (ip), vehicle: acetone) is 6 of 6; the survivor count (dose: 400.0 mg/kg/injection, schedule: Q04DX003 (ip), vehicle: acetone) is 2 of 6 and 3 of 6. For the compound `Cn1c(=O)c2c(nc(OC3CCC=CO3)n2C)n(C)c1=O` (stereo not given), the survivor count under setting [10] is on record as 1 of 4.

In the case of `CCC(N)CO` (stereo not given), the survivor count under setting [3] is 2 of 4. For the compound `Nc1ncnc2cc[nH]c12`, the survivor count (dose: 300.0 mg/kg/injection, schedule: Q01DX001 (ip), vehicle: carboxymethylcellulose (CMC)) was 0 of 4 and 3 of 6.

For the compound `CC(C)C(NC(=O)CI)C(=O)Nc1ccc(C(=O)O)c(O)c1` (stereo not given), the survivor count under setting [1] is given as 0 of 6.

Consider `CCCCNC(=S)NC1CC(O[C@H]2C[C@](O)(C(C)=O)Cc3c(O)c4c(c(O)c32)C(=O)c2c(OC)cccc2C4=O)OC(C)C1O` (stereo not given in full), for which the survivor count (dose: 200.0 mg/kg/injection, schedule: Q01DX009 (ip), vehicle: saline with Tween-80) is on record as 6 of 6 and the survivor count (dose: 400.0 mg/kg/injection, schedule: Q01DX009 (ip), vehicle: saline with Tween-80) was 5 of 6. In the case of `CC([NH-])C(C)[NH-].CC([NH-])C(C)[NH-].[Cl][Co][Cl]` (stereo not given), under setting [6], the survivor count was 0 of 3. For `CNC(=O)C1NCCc2cc(OC)c(OC)cc21` (stereo not given), the survivor count under setting [7] is 4 of 4, the survivor count under setting [2] is on record as 4 of 4 and the survivor count under setting [3] is 2 of 4.
